Experimental data taken from PubChem BioAssay AID493014 (National Center for Advancing Translational Sciences (NCATS), 2011).
Some of the results follow. The main result of the screen is listed elsewhere. These columns were measured beside it and carry no call. The list favours compounds with an active or inconclusive main result. The note in brackets gives the kind of curve behind each potency; many fits are weak.

Assay: qHTS Assay to Find Inhibitors of Chronic Active B-Cell Receptor Signaling
Conditions: ABC-DLBCL IkBa-CBG/CBR reporter, luminescence ratio (green luciferase fused to IkBa over red control in TMD8 lymphoma cells), 4 h
Summary of the method: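 TMD8 ABC-DLBCL cells carrying doxycycline-inducible green luciferase fused to IkappaBalpha plus unfused red luciferase were exposed to compounds (up to 46 uM) for 4 hrs at 37C. Activity came from the overlap-corrected green/red luminescence ratio.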

[1] = measured here: CBR red luminescence, cell number
[2] = measured here: IkBa-CBG green luminescence

Row | SMILES | AC50 [1] | AC50 [2]
1 | CC(=O)Nc1ccc(-c2csc(Nc3cc(C)ccn3)n2)cc1 | 35.5 µM [falling, single point] | 
2 | CCc1cccc(NC(=O)C2CCCN(c3ncnc4c3nc3n4CCCCC3)C2)c1 (configuration not stated) | 4.47 µM [rising, single point] | 
3 | O=C(Nc1ccccc1C(=O)NCCN1CCOCC1)c1ccco1 | 1.64 µM [rising, partial curve, poor fit] | 
4 | Cc1nc(-c2ccccc2)nc2sc(C(=O)c3ccc(F)cc3)c(N)c12 | 3.98 µM [rising, partial curve, poor fit] | 
5 | CC(=O)COc1ccc2c3c(c(=O)oc2c1C)CCCCC3 | 5.8 µM [rising, partial curve, poor fit] | 
6 | COc1ccccc1C(=O)N/N=C(\C)CC(=O)Nc1ccc2c(c1)OCCO2 | 2 µM [falling, full curve] | 
7 | O=C(CSc1ccnc(=O)[nH]1)NCc1ccc(F)cc1 | 0.794 µM [falling, full curve, poor fit] | 
8 | O=C(O)c1ccccc1NS(=O)(=O)c1cccc(C(F)(F)F)c1 | 23.1 µM [rising, single point] | 
9 | COc1cccc(-c2cc3c(-n4cccc4)ncnc3o2)c1 | 10 µM [falling, partial curve] | 
10 | O=C(Cc1coc(-c2ccc(F)cc2)n1)NCc1ccccc1 | 0.651 µM [rising, partial curve, poor fit] | 
11 | CN1CCN(C2=CC3=CC(=C(C#N)C#N)CCC3CC2)CC1 (configuration not stated) | 0.282 µM [falling, full curve, poor fit] | 
12 | O=C(CCc1nc2ccccc2[nH]1)Nc1ccccc1F | 12.6 µM [falling, partial curve] | 
13 | CC1(c2ccccc2)NC(=O)N(CC(=O)N2CC(=O)Nc3ccccc32)C1=O (configuration not stated) | 14.6 µM [rising, single point] | 
14 | CN(C(=O)Nc1ccc(Cl)cc1Cl)[C@H]1c2cc(Br)ccc2OC[C@H]1CO | 23.1 µM [falling, single point] | 
15 | Cc1ccc(C)n1NC(=O)c1ccc(O)cc1 | 8.2 µM [falling, partial curve, poor fit] | 
16 | O=C1NC(Cc2ccccc2)c2nc3ccc(Cl)cc3c(=O)n2-c2ccc(Cl)cc21 (configuration not stated) | 4.61 µM [falling, partial curve] | 
17 | O=C(NCc1ccc(Cl)cc1)c1cc(=O)nc2sc(-c3ccccc3)nn12 | 29.1 µM [falling, single point] | 
18 | CCCCCNC(=O)c1ccc2c(=O)n(CC3CCCO3)c(=O)[nH]c2c1 (configuration not stated) |  | 12.6 µM [rising, partial curve, poor fit]
19 | COc1cccc(NC(=O)C(NCC2CCCCC2)c2ccccc2)c1 (configuration not stated) | 32.6 µM [falling, single point] | 29.1 µM [rising, partial curve, poor fit]
20 | O=C(COc1ccccc1[N+](=O)[O-])Nc1ccc(NC(=O)c2cc3ccccc3o2)cc1 | 0.631 µM [rising, full curve, poor fit] | 
21 | CCOC(=O)c1cc(-c2ccc(OC)cc2OC)nn1-c1ccc(C(=O)O)cc1 | 11.2 µM [falling, partial curve] | 
22 | COC(=O)c1c(NC(=O)CCl)sc(C(=O)N2CCOCC2)c1C | 20 µM [falling, single point] | 

Row | SMILES | AC50 [1] | AC50 [2]
23 | Cc1cccc(-n2c(O)c(C=Nc3ccccc3)c3ccccc3c2=O)n1 | 0.891 µM [rising, full curve, poor fit] | 
24 | Cc1ccc(S(=O)(=O)Nn2c(O)c(C=C3N=c4ccccc4=N3)sc2=S)cc1 | 10 µM [falling, partial curve] | 
25 | O=[N+]([O-])c1ccc(NC2CCCC2)cc1 | 7.31 µM [rising, partial curve, poor fit] | 
26 | C=CCn1c(N)c(C(=O)OCC(C)C)c2nc3ccccc3nc21 | 15.8 µM [falling, single point] | 
27 | C=CCNC(=O)c1cc(Cl)cc(Cl)c1 | 25.1 µM [rising, single point] | 
28 | COCCN1C(=O)c2ccc(C(=O)Nc3nccs3)cc2C1=O | 3.16 µM [falling, full curve] | 
29 | CCOc1cc(C(=S)N2CCOCC2)ccc1OC(=O)c1cc(OC)c(OC)c(OC)c1 | 35.5 µM [rising, single point] | 
30 | COc1ccc(-n2ncc3c(NC(C)C)ncnc32)cc1 | 11.2 µM [falling, single point] | 
31 | Cc1ccc(CN2CCC(n3nccc3NC(=O)CCCc3ccccc3)CC2)o1 | 1.78 µM [rising, partial curve, poor fit] | 
32 | CN(CC(=O)Nc1ccc(Cl)cc1)C(=O)c1ccc(COc2ccccc2)cc1 | 29.1 µM [rising, single point] | 32.6 µM [falling, partial curve, poor fit]
33 | Cc1cc(Oc2ccc(N)cn2)ccc1Cl | 35.5 µM [rising, single point] | 
34 | Cc1cc(C)nc(N/N=C/c2ccccc2OCc2ccccc2)n1 | 13 µM [falling, partial curve, poor fit] | 
35 | c1ccc(-c2cc(N3CCCCC3)ncn2)cc1 | 1.16 µM [rising, full curve, poor fit] | 
36 | CNC(=O)c1cc2ccc(OC)cc2oc1=O | 6.51 µM [rising, single point] | 
37 | COc1cccc(C(=O)Nc2ccc3nc(N4CCOCC4)cc(C)c3c2)c1 | 6.51 µM [falling, partial curve] | 
38 | CCN(CC)S(=O)(=O)c1nnc(NC(=O)c2ccco2)s1 | 0.355 µM [rising, partial curve, poor fit] | 
39 | CCOC(=O)CN1C(=O)C(C)(C)Oc2ccc(C(=O)Nc3ccccc3OC)cc21 | 3.66 µM [rising, full curve] | 
40 | Cn1cccc1C(=O)OCc1ccc(C(C)(C)C)cc1 | 12.6 µM [rising, partial curve, poor fit] | 
41 | Cc1ccc(S(=O)(=O)NCC(=O)N(CC(=O)NCc2ccccc2)CC2CCCO2)cc1 (configuration not stated) | 0.92 µM [falling, full curve, poor fit] | 
42 | N#Cc1cccc(NC(=O)CCNC(=O)c2ccccc2Cl)c1 | 35.5 µM [rising, partial curve, poor fit] | 
43 | Cc1ccc(-c2nnc(CCC(=O)N(C)Cc3nccs3)o2)s1 | 8.91 µM [rising, partial curve, poor fit] | 
44 | Cc1sc(/N=C/c2ccccc2O)c(C#N)c1C | 0.82 µM [falling, full curve, poor fit] | 

Of the compounds above, these contain a thiophene ring, fused or not:
Row | SMILES | AC50 [1] | AC50 [2]
4 | Cc1nc(-c2ccccc2)nc2sc(C(=O)c3ccc(F)cc3)c(N)c12 | 3.98 µM [rising, partial curve, poor fit] | 
22 | COC(=O)c1c(NC(=O)CCl)sc(C(=O)N2CCOCC2)c1C | 20 µM [falling, single point] | 
43 | Cc1ccc(-c2nnc(CCC(=O)N(C)Cc3nccs3)o2)s1 | 8.91 µM [rising, partial curve, poor fit] | 
44 | Cc1sc(/N=C/c2ccccc2O)c(C#N)c1C | 0.82 µM [falling, full curve, poor fit] | 

The results go on.

Row | SMILES | AC50 [1] | AC50 [2]
45 | CCOc1cccc2cc(-c3csc(NC(=O)CCC(=O)N4CCC(C)CC4)n3)c(=O)oc12 | 0.164 µM [rising, full curve, poor fit] | 
46 | CCCCn1c(SCC(=O)c2cc(OC)ccc2OC)nc2cc(S(N)(=O)=O)ccc21 |  | 11.2 µM [falling, partial curve]
47 | Cc1cccc(OCCn2c(=S)[nH]c3ccccc32)c1 | 18.4 µM [rising, partial curve, poor fit] | 
48 | CC(C)=NOCC(=O)Nn1c(COc2ccccc2)nc2ccccc2c1=O | 22.4 µM [falling, partial curve] | 
49 | COc1ccccc1C(=O)O/N=C(\N)c1ccc(Cl)cc1 | 10 µM [falling, partial curve] | 
50 | CC(C)CCn1c(=O)c2ccccc2n2c(CCl)nnc12 | 11.2 µM [falling, partial curve] | 
51 | CCOC(=O)C1(CC2CCCCO2)CCN(S(=O)(=O)c2ccc(OC)cc2)CC1 (configuration not stated) | 3.16 µM [falling, single point] | 
52 | CCCCNC(=O)C1CCN(C(=O)Nc2ccc(C)cc2)CC1 | 2.59 µM [rising, full curve, poor fit] | 
53 | CCOC(=O)/C(C#N)=C\c1ccc(CC)s1 | 3.98 µM [rising, full curve, poor fit] | 
54 | COc1ccccc1C(CNC(=O)C1CCN(C(=O)Nc2ccccc2)CC1)N1CCCC1 (configuration not stated) | 7.31 µM [rising, partial curve] | 
55 | CN(C(=S)NC(=O)c1ccc(F)cc1)C1CCCCC1 | 0.794 µM [rising, full curve, poor fit] | 
56 | CCOc1ccc(NC(=O)C(C)NS(=O)(=O)c2ccc(NC(C)=O)cc2)cc1 (configuration not stated) | 3.55 µM [rising, partial curve, poor fit] | 
57 | O=C(CNCc1ccco1)Nc1cc(S(=O)(=O)N2CCOCC2)ccc1N1CCOCC1 | 6.51 µM [rising, single point] | 
58 | CCOC(=O)c1ccc2ncc(C(=O)OCC)c(NCCCN3CCOCC3)c2c1 | 17.8 µM [falling, single point] | 
59 | Cc1ccc(C(=O)N(CC(=O)Nc2sc(C)c(C)c2C(N)=O)C2CCCC2)cc1 | 5.62 µM [falling, full curve, poor fit] | 
60 | Cc1cc(Cl)ccc1NC(=S)NCc1ccccc1Cl | 2.31 µM [rising, partial curve, poor fit] | 
61 | Cc1ccc(C(=O)NCC(=O)OCC(=O)NCCNC(=O)COC(=O)CNC(=O)c2ccc(C)cc2)cc1 | 23.1 µM [rising, single point] | 
62 | CCN(CC)CCCNC(=O)c1sc2nc(-c3ccc(F)cc3)cn2c1C |  | 2.91 µM [rising, full curve, poor fit]
63 | O=C(NCC1OCCc2ccccc21)c1ccc(NC(=O)c2ccccc2Cl)cc1 (configuration not stated) | 18.4 µM [falling, partial curve, poor fit] | 
64 | O=C(O)CCC(=O)NCc1ccc(F)cc1 | 29.1 µM [rising, single point] | 
65 | O=C(NCC(c1ccco1)N1CCc2ccccc21)c1ccc([N+](=O)[O-])cc1 (configuration not stated) | 29.1 µM [falling, single point] | 

As entered above:
`CCOC(=O)c1ccc2ncc(C(=O)OCC)c(NCCCN3CCOCC3)c2c1` – AC50 [1]: 17.8 µM [falling, single point]
`CCOc1ccc(NC(=O)C(C)NS(=O)(=O)c2ccc(NC(C)=O)cc2)cc1` (configuration not stated) – AC50 [1]: 3.55 µM [rising, partial curve, poor fit]
